Results are given in words; binding and its absence hold for the method and conditions named. Some binding calls cover weakened binding; strength is not graded here.
T1: mouse fibrin (mouse) (UniProt E9PV24+Q8K0E8+Q8VCM7)
T1 sequence (looked up) 1: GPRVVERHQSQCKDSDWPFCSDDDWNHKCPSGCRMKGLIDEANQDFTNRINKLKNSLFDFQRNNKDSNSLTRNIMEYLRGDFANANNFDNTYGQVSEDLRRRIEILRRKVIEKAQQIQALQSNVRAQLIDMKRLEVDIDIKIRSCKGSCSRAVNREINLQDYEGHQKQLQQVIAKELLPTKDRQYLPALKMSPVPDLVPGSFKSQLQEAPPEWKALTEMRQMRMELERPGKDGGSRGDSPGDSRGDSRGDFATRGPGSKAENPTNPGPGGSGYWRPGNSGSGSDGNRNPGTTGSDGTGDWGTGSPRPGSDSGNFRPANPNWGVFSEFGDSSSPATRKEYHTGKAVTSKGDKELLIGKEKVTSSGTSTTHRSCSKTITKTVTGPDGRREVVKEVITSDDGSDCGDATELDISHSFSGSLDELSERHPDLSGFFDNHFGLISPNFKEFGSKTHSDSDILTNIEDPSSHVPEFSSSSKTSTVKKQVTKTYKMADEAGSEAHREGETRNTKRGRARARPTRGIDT
T1 sequence (looked up) 2: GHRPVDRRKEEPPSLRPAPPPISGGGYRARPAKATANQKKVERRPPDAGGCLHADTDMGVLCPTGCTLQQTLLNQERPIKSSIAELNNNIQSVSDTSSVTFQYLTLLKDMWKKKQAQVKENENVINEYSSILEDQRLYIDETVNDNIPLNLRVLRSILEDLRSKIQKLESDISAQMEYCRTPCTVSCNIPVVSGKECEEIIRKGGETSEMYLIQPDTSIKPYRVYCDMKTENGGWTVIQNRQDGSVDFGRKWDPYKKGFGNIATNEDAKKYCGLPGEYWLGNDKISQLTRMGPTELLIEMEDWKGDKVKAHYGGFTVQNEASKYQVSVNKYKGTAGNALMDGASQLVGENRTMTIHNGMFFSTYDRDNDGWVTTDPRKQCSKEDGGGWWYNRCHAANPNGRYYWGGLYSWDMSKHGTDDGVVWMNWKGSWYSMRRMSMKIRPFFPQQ
T1 sequence (looked up) 3: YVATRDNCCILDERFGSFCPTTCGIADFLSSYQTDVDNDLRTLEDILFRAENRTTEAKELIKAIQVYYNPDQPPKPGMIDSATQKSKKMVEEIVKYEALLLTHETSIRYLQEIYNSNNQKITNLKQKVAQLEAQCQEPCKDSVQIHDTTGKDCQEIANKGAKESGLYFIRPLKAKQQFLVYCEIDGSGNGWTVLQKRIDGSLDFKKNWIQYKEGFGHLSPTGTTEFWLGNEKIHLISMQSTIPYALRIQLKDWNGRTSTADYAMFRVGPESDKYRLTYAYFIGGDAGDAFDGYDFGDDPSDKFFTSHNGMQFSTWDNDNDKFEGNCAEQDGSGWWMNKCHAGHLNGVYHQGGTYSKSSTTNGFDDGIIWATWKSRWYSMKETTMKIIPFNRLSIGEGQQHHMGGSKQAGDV

B1: mouse anti-fibrin IgM antibody produced by hybridoma cell line 102-10 (accession number NITE BP-923) (antibody, V domains shown)
VH: QIQLVQSGPELKKPGETVKISCKASGYTFTNYGMNWVKQAPGKGLKWMGWINTYTGEATYADDFKGRFAFSLETSANTAYVQINNLKNEDTATYFCARLMDYWGQGTSVTVSS
VL: DIQMTQSPSSLSASLGGKVTITCKASQDINKYIAWFQHKPGKGPRLLIHYTSTLQPGIPSRFSGSGSGRDYSFSISNLEPEDLATYYCLQYDNLTWTFGGGTKLEIK
notes: Mouse IgM; Tested as hybridoma culture supernatant in ELISA; also called clone 102-10; mouse IgM antibody
B2: human type anti-fibrin chimeric antibody (human type IgG clone 102-10Hu) (antibody, V domains shown)
VH: QIQLVQSGPELKKPGETVKISCKASGYTFTNYGMNWVKQAPGKGLKWMGWINTYTGEATYADDFKGRFAFSLETSANTAYVQINNLKNEDTATYFCARLMDYWGQGTSVTVSS
VL: DIQMTQSPSSLSASLGGKVTITCKASQDINKYIAWFQHKPGKGPRLLIHYTSTLQPGIPSRFSGSGSGRDYSFSISNLEPEDLATYYCLQYDNLTWTFGGGTKLEIK
notes: made in CHO cells, purified on Protein G and hydroxyapatite; They may include a leader peptide; no cleavage site is stated; also called human chimeric antibody; human chimeric anti-fibrin IgG

Legend:
[1] = molecular target: T1, mouse fibrin (mouse); experiment: ELISA, hybridoma 102-10 culture supernatant on fibrin plate (Fig. 1C)
[2] = molecular target: T1, mouse fibrin (mouse); experiment: immunostaining of sections of mouse chemically induced invasive squamous cell carcinoma (Fig. 6B)
[3] = molecular target: T1, mouse fibrin (mouse); experiment: ELISA, purified chimeric antibody on fibrin plate (Fig. 3)

Binder	binding [1]	binding [2]	binding [3]
B1	binds	binds	–
B2	–	–	binds
